In article PMC7348923:
These are yes or no findings as the source states them, for the method shown. Binding seen in cells or lysates may run through a third protein. Binding calls can cover weak binding; strength is not graded here.

Target: T1, zebrafish Hspb8 (zebrafish (endogenous in 120 hpf larvae)) (UniProt Q6PFS1)
T1 sequence: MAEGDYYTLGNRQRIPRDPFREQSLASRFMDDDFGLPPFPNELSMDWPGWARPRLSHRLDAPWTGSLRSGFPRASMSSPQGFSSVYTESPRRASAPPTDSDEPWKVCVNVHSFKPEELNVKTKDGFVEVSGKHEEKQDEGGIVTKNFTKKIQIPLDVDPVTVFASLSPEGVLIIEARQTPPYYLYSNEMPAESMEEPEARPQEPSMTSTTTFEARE
Experiment: co-IP; Pierce Co-IP kit; anti-Hspb8 or anti-Bag3 antibody covalently coupled to amine-reactive resin, resin only as negative control; lysate of 30 heat-shocked 120 hpf zebrafish larvae; eluates read by Western blot

## zebrafish Bag3 (Bcl2-associated athanogene 3)
  binding: binds

## LC3 I/II (zebrafish (endogenous in 120 hpf larvae))
  binding: no binding
